# The supplement of paper PMC8728848
# The list shows a part of the results.
# Legend:
# Experiment in all cases: glycan array binding signal (z-score within array); higher = stronger binding
# Settings in all cases: glycan notation: IUPAC condensed, linker removed
# [1] = target: Fuc(a1-3)[Gal(b1-4)]GlcNAc(b1-3)Gal(b1-4)[Fuc(a1-3)]GlcNAc
# Method in brief: (§1)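 Negative Z-scores can be read as non-binding. The Z-score is calculated within each array and then averaged across arrays of one protein sequence at different concentrations or buffers and across linkers. Arrays, 3228 in all, were curated from the Consortium for Functional Glycomics database and kept only where the protein sequence was available.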
# [2] = target: Fuc(a1-3)[Gal(b1-4)]GlcNAc(b1-3)Gal(b1-4)[Fuc(a1-3)]GlcNAc(b1-3)Gal(b1-4)[Fuc(a1-3)]GlcNAc
# Method in brief: as §1
# [3] = target: Fuc(a1-3)[Gal(b1-4)]GlcNAc(b1-3)GalNAc
# Method in brief: as §1
# [4] = target: Fuc(a1-3)[Gal(b1-4)]GlcNAc(b1-6)GalNAc
# Method in brief: as §1
# [5] = target: Fuc(a1-3)[Gal(b1-4)]GlcNAc(b1-6)[Gal(b1-3)GlcNAc(b1-3)]Gal(b1-4)Glc
# Method in brief: as §1
# [6] = target: Fuc(a1-3)[Gal(b1-4)]GlcNAc6S
# Method in brief: as §1
# [7] = target: Fuc(a1-3)[Gal3S(b1-4)]Glc
# Method in brief: as §1
# [8] = target: Fuc(a1-3)[Gal3S(b1-4)]GlcNAc
# Method in brief: as §1
# [9] = target: Fuc(a1-3)[Gal3S(b1-4)]GlcNAc6S
# Method in brief: as §1
# [10] = target: Fuc(a1-3)[GalNAc(b1-4)]GlcNAc
# Method in brief: as §1
# [11] = target: Fuc(a1-3)[GalNAc(b1-4)]GlcNAc6S
# Method in brief: as §1
# Fuc(a1-4)GlcNAc = target: Fuc(a1-4)GlcNAc
# Method in brief: as §1
# Fuc(b1-3)GlcNAc = target: Fuc(b1-3)GlcNAc
# Method in brief: as §1
# Gal(a1-2)Gal = target: Gal(a1-2)Gal
# Method in brief: as §1
# Gal(a1-3)Gal = target: Gal(a1-3)Gal
# Method in brief: as §1
# Gal(a1-3)Gal(b1-3)GlcNAc = target: Gal(a1-3)Gal(b1-3)GlcNAc
# Method in brief: as §1
# [12] = target: Gal(a1-3)Gal(b1-3)GlcNAc(b1-2)Man
# Method in brief: as §1
# [13] = target: Gal(a1-3)Gal(b1-3)GlcNAc(b1-2)Man(a1-3)[Gal(a1-3)Gal(b1-3)GlcNAc(b1-2)Man(a1-6)]Man(b1-4)GlcNAc(b1-4)GlcNAc
# Method in brief: as §1
# [14] = target: Gal(a1-3)Gal(b1-3)GlcNAc(b1-3)GalNAc
# Method in brief: as §1
# [15] = target: Gal(a1-3)Gal(b1-3)GlcNAc(b1-6)GalNAc
# Method in brief: as §1
# [16] = target: Gal(a1-3)Gal(b1-3)[Fuc(a1-4)]GlcNAc(b1-2)Man(a1-3)[Gal(a1-3)Gal(b1-3)[Fuc(a1-4)]GlcNAc(b1-2)Man(a1-6)]Man(b1-4)GlcNAc(b1-4)GlcNAc
# Method in brief: as §1
# Gal(a1-3)Gal(b1-4)Glc = target: Gal(a1-3)Gal(b1-4)Glc
# Method in brief: as §1
# Gal(a1-3)Gal(b1-4)GlcNAc = target: Gal(a1-3)Gal(b1-4)GlcNAc
# Method in brief: as §1
# [17] = target: Gal(a1-3)Gal(b1-4)GlcNAc(b1-2)Man
# Method in brief: as §1
# [18] = target: Gal(a1-3)Gal(b1-4)GlcNAc(b1-2)Man(a1-3)[Gal(a1-3)Gal(b1-4)GlcNAc(b1-2)Man(a1-6)]Man(b1-4)GlcNAc(b1-4)GlcNAc
# Method in brief: as §1
# [19] = target: Gal(a1-3)Gal(b1-4)GlcNAc(b1-3)GalNAc
# Method in brief: as §1
# [20] = target: Gal(a1-3)Gal(b1-4)GlcNAc(b1-6)GalNAc
# Method in brief: as §1
# [21] = target: Gal(a1-3)Gal(b1-4)[Fuc(a1-3)]GlcNAc
# Method in brief: as §1
# [22] = target: Gal(a1-3)Gal(b1-4)[Fuc(a1-3)]GlcNAc(b1-2)Man(a1-3)[Gal(a1-3)Gal(b1-4)[Fuc(a1-3)]GlcNAc(b1-2)Man(a1-6)]Man(b1-4)GlcNAc(b1-4)GlcNAc
# Method in brief: as §1
# Gal(a1-3)GalNAc = target: Gal(a1-3)GalNAc
# Method in brief: as §1
# [23] = target: Gal(a1-3)[Gal(a1-4)]Gal(b1-4)GlcNAc
# Method in brief: as §1
# [24] = target: Gal(a1-4)Gal(b1-3)GlcNAc(b1-2)Man(a1-3)[Gal(a1-4)Gal(b1-3)GlcNAc(b1-2)Man(a1-6)]Man(b1-4)GlcNAc(b1-4)GlcNAc
# Method in brief: as §1
# Gal(a1-4)Gal(b1-4)Glc = target: Gal(a1-4)Gal(b1-4)Glc
# Method in brief: as §1
# Gal(a1-4)Gal(b1-4)GlcNAc = target: Gal(a1-4)Gal(b1-4)GlcNAc
# Method in brief: as §1
# [25] = target: Gal(a1-4)Gal(b1-4)GlcNAc(b1-2)Man(a1-3)[Gal(a1-4)Gal(b1-4)GlcNAc(b1-2)Man(a1-6)]Man(b1-4)GlcNAc(b1-4)GlcNAc
# Method in brief: as §1
# [26] = target: Gal(a1-4)Gal(b1-4)GlcNAc(b1-3)Gal(b1-4)Glc
# Method in brief: as §1
# Gal(a1-4)GlcNAc = target: Gal(a1-4)GlcNAc
# Method in brief: as §1
# Gal(a1-6)Glc = target: Gal(a1-6)Glc
# Method in brief: as §1
binder,measurement,setting,value
B3GalT2 (Rattus norvegicus) (protein) LMLQWRRRHCCFAKMSWNAKRSLFRTHLMGVLSLVFLFAMFLFFNHHDWLPGRPGFKENPVTYTFRGFRSTKTETNQSSLRNIWKEVVPQTLRPQTATNSNNTELSPQGVTGLENTLSANGSIYNEKGTGHPNSYHFKYIINEPEKCQEKSPFLILLIAAEPGQIEARRAIRQTWGNETLAPGIQITRIFLLGISIKLNGYLQHAIQEESIQYHDIIQQEYLDTYYNLTIKTLMGMNWVATYCPHTPYVMKTDSDMFVNTEYLIHKLLKPDLPPRHNYFTGYLMRGYAPNRNKDSKWYMPPDLYPSERYPVFCSGTGYVFSGDLAEKIFKVSLGIRRLHLEDVYVGICLAKLRVDPVPPPNEFVFNHWRVSYSSCKYSHLITSHQFQPSELIKYWNHLQQNKHNACVNAAKEKAGRYRHRKLH,glycan array binding signal (z-score),[1],0.853
same,glycan array binding signal (z-score),[2],-0.328
same,glycan array binding signal (z-score),[3],0.028
same,glycan array binding signal (z-score),[4],-0.729
same,glycan array binding signal (z-score),[5],-0.878
same,glycan array binding signal (z-score),[6],1.85
same,glycan array binding signal (z-score),[7],0.499
same,glycan array binding signal (z-score),[8],0.537
same,glycan array binding signal (z-score),[9],0.714
same,glycan array binding signal (z-score),[10],0.444
same,glycan array binding signal (z-score),[11],2.41
same,glycan array binding signal (z-score),Fuc(a1-4)GlcNAc,-0.85
same,glycan array binding signal (z-score),Fuc(b1-3)GlcNAc,-0.867
same,glycan array binding signal (z-score),Gal(a1-2)Gal,-0.737
same,glycan array binding signal (z-score),Gal(a1-3)Gal,-0.023
same,glycan array binding signal (z-score),Gal(a1-3)Gal(b1-3)GlcNAc,-0.848
same,glycan array binding signal (z-score),[12],0.596
same,glycan array binding signal (z-score),[13],-0.735
same,glycan array binding signal (z-score),[14],-0.17
same,glycan array binding signal (z-score),[15],-0.65
same,glycan array binding signal (z-score),[16],-0.703
same,glycan array binding signal (z-score),Gal(a1-3)Gal(b1-4)Glc,-0.756
same,glycan array binding signal (z-score),Gal(a1-3)Gal(b1-4)GlcNAc,-0.174
same,glycan array binding signal (z-score),[17],-0.684
same,glycan array binding signal (z-score),[18],-0.478
same,glycan array binding signal (z-score),[19],0.118
same,glycan array binding signal (z-score),[20],-0.997
same,glycan array binding signal (z-score),[21],-0.643
same,glycan array binding signal (z-score),[22],-1.16
same,glycan array binding signal (z-score),Gal(a1-3)GalNAc,-0.362
same,glycan array binding signal (z-score),[23],0.28
same,glycan array binding signal (z-score),[24],0.421
same,glycan array binding signal (z-score),Gal(a1-4)Gal(b1-4)Glc,-0.43
same,glycan array binding signal (z-score),Gal(a1-4)Gal(b1-4)GlcNAc,0.027
same,glycan array binding signal (z-score),[25],-0.558
same,glycan array binding signal (z-score),[26],-0.026
same,glycan array binding signal (z-score),Gal(a1-4)GlcNAc,0.574
same,glycan array binding signal (z-score),Gal(a1-6)Glc,-0.596

# Random excerpt: two records from the list, in no set order.
binder,measurement,setting,value
B3GalT2 (Rattus norvegicus) (protein) LMLQWRRRHCCFAKMSWNAKRSLFRTHLMGVLSLVFLFAMFLFFNHHDWLPGRPGFKENPVTYTFRGFRSTKTETNQSSLRNIWKEVVPQTLRPQTATNSNNTELSPQGVTGLENTLSANGSIYNEKGTGHPNSYHFKYIINEPEKCQEKSPFLILLIAAEPGQIEARRAIRQTWGNETLAPGIQITRIFLLGISIKLNGYLQHAIQEESIQYHDIIQQEYLDTYYNLTIKTLMGMNWVATYCPHTPYVMKTDSDMFVNTEYLIHKLLKPDLPPRHNYFTGYLMRGYAPNRNKDSKWYMPPDLYPSERYPVFCSGTGYVFSGDLAEKIFKVSLGIRRLHLEDVYVGICLAKLRVDPVPPPNEFVFNHWRVSYSSCKYSHLITSHQFQPSELIKYWNHLQQNKHNACVNAAKEKAGRYRHRKLH,glycan array binding signal (z-score),Gal(a1-3)Gal(b1-4)Glc,-0.756
same,glycan array binding signal (z-score),[13],-0.735
